We go through 4 substances from publication PMC4072592.

Sequences of proteins named here, by UniProt entry; tags and fusion partners are left off. A change or cut given only in a name is not applied to a line headed by its entry.
UniProt Q9V535: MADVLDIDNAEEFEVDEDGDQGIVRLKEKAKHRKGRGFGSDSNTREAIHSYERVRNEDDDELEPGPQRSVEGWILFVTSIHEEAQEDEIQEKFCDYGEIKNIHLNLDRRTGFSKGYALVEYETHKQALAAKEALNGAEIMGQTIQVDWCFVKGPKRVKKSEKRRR
UniProt P49028: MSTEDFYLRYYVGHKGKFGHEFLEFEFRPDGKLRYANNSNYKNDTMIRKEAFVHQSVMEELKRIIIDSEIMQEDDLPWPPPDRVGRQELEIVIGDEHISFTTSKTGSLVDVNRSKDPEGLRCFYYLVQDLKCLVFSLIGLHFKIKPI
UniProt Q9VHS8: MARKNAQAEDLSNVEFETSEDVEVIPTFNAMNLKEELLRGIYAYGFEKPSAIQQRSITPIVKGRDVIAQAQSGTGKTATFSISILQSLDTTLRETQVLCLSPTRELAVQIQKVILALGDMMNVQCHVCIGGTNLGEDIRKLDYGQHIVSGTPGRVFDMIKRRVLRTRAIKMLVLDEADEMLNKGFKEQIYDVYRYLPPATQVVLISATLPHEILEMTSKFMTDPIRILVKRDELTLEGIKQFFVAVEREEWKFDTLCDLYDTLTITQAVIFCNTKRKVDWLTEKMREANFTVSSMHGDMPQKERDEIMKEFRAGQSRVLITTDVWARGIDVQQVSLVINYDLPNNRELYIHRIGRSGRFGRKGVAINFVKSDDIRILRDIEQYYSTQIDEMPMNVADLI
UniProt P82804: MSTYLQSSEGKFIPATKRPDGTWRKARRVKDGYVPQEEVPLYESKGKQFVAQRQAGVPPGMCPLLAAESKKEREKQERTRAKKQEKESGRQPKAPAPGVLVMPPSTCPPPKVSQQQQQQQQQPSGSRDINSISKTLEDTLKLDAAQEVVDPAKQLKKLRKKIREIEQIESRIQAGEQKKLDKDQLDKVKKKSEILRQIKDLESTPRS

These are yes or no findings as the source states them, for the method shown. In cells and extracts the contact can be indirect. Some results given as binding are weak or reduced against the parent protein; the word gives no strength.

In assay [1] the target is Y14-Mago heterodimer, endogenous in ovaries (Drosophila (endogenous in fly ovaries)) (UniProt Q9V535+P49028). Kind of assay: co-IP; anti-eIF4AIII antibody (rabbit IgG as control) on cytoplasmic ovarian extracts of wild-type, osk^A87/+, and osk^A87/+ flies over-expressing FLAG- or GFP-tagged FL-PYM; western blot. In general terms: A western blot detects proteins with antibodies after separation by electrophoresis.

The target of assay [2] is HA-eIF4AIII (S2 cells) (Drosophila) (UniProt Q9VHS8). Kind of assay: co-IP; anti-HA beads on extracts of S2 cells co-expressing HA-eIF4AIII and GFP or GFP-tagged PYM proteins; bound fractions probed with anti-Mago.
Assay [3] addresses FL-PYM-GFP (S2 cells) (Drosophila) (UniProt P82804). Kind of assay: co-IP; GFP-Trap beads on cytoplasmic extracts of S2 cells expressing GFP or GFP-tagged FL-, ΔC- or N-PYM, native conditions; blots of Mago and Y14 quantified by densitometry, coIP efficiency as percent of the GFP enrichment.
Assay [4] shares this target. Kind of assay: co-IP; GFP-Trap beads on extracts of S2 cells co-expressing HA-eIF4AIII and GFP or GFP-tagged PYM proteins; bound fractions probed with anti-Mago.
For assay [5], the target named is eIF4AIII, endogenous in ovaries (Drosophila (endogenous in fly ovaries)) (UniProt Q9VHS8). Kind of assay: co-IP; anti-eIF4AIII antibody (rabbit IgG as control) on cytoplasmic ovarian extracts of wild-type, osk^A87/+, and osk^A87/+ flies over-expressing FLAG- or GFP-tagged FL-PYM; western blot.
Assay [6] deals with FLAG-FL-PYM (transgene, ovaries) (Drosophila) (UniProt P82804). Kind of assay: co-IP; mouse anti-FLAG antibody on cytoplasmic extracts of osk^A87/+ ovaries expressing FLAG-tagged PYM proteins, 4°C; western blot.
In assay [7] the target is Drosophila PYM (DmPYM), endogenous (Drosophila (endogenous in fly ovaries)) (UniProt P82804). Kind of assay: co-IP; anti-PYM antibody (anti-HA as unrelated antibody) on cytoplasmic extract of wild-type ovaries, 4°C, with or without RNase; washes with 300 mM KCl, 0.2% NP-40; western blot.

In the case of “FL-PYM-GFP (transgene, ovaries) (from UniProt P82804 1-207)”, the binding result in assay [1] was “binds”.

With “Y14-Mago heterodimer, endogenous in S2 cells (from UniProt Q9V535 1-165; P49028 1-147) (complex)”, the binding result in assay [2], in assay [3] and in assay [4] was “binds” throughout.

In the case of “Y14-Mago heterodimer, endogenous in ovaries (from UniProt Q9V535 1-165; P49028 1-147) (complex)”, the binding entry in assay [5], in assay [6] and in assay [7] was “binds” each time.

In the case of “eIF4AIII, endogenous in ovaries (from UniProt Q9VHS8 1-399)”, the binding result in assay [6] and in assay [7] was “no binding” throughout.
